According to publication PMC9979339 (ACS Omega, 2023):
Marks after values point to notes of the source that are not given here.

The chains behind the UniProt entries cited, without tags or fusion partners. Residues count along the entry.
UniProt Q03311, 30-603: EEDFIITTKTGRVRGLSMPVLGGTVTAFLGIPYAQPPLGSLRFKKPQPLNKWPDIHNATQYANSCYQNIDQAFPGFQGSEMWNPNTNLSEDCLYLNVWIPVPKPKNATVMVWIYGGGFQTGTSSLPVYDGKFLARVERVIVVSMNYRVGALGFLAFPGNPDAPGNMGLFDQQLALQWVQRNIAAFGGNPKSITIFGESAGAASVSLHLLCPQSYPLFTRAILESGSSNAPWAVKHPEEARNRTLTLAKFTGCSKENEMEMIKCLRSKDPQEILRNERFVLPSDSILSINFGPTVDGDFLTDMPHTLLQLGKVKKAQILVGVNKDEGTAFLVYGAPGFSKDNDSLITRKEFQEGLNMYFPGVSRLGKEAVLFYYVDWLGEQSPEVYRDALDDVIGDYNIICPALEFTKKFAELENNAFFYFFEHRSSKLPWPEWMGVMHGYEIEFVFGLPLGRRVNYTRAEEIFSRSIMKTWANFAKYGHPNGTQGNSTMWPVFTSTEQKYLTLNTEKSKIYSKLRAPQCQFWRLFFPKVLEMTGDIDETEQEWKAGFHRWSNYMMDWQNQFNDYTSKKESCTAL

Molecular target: BuChE in the brain (Mus musculus, UniProt Q03311)
Test: Ex vivo BuChE activity in brain homogenate after NORT
Parameters: species or system mice
Conditions: donepezil 2 mg/kg plus scopolamine, control = 100, n = 3

COc1cc2c(cc1OC)C(=O)C(CC1CCN(Cc3ccccc3)CC1)C2 (stereo not shown) [donepezil, reference compound]
BuChE inhibition (%) in the brain: 55 ± 4.2 ^d %
